Assay results: publication PMC5996148
The list shows a part of the results.

How the values were obtained:
Experiment in all cases: protein microarray (ProtoArray v5.0), streptavidin-Alexa Fluor 647
Details in all cases: 3'-biotin; 20 mM Tris (pH 7.5), 5 mM MgCl2, 100 mM KCl, 0.1% Tween-20, A/T-rich and random oligonucleotide blockers; temperature not stated; high values mean tight binding
[1] = tested on: cDNA clone MGC:45422 IMAGE:5246377 (human)
[2] = tested on: cDNA clone MGC:48448 IMAGE:5266019 (human)
[3] = tested on: cDNA clone MGC:52019 IMAGE:5188979 (human)
[4] = tested on: cDNA clone MGC:70358 IMAGE:5539182 (human)
[5] = tested on: cDNA clone MGC:8430 IMAGE:2821116 (human)
[6] = tested on: cDNA clone MGC:87928 IMAGE:5104751 (human)
[7] = tested on: cDNA clone MGC:88809 IMAGE:6279986 (human)
guanine-9- (human) = tested on: guanine-9- (human)
[8] = tested on: hypothetical LOC554201 (human)
[9] = tested on: mRNA similar to hypothetical protein FLJ20234 (human)

GGTGACAGGGGTATGGGGAGGGG [G4-2 biotinylated (Ct1)]
binding signal [1]: 6.09 z-score
binding signal [2]: -0.368 z-score
binding signal [3]: -0.379 z-score
binding signal [4]: -0.39 z-score
binding signal [5]: -0.389 z-score
binding signal [6]: -0.39 z-score
binding signal [7]: -0.374 z-score
binding signal (guanine-9- (human)): 3.44 z-score
binding signal [8]: -0.39 z-score
binding signal [9]: -0.379 z-score
